The text below walks through data of patent US20250075147A1, “FRAGRANCE AND FLAVOR COMPOSITIONS COMPRISING NEW FLAVOR AND FRAGRANCE INGREDIENTS” (priority 2023, published 2025).

One series relates to odor evaluation panel. The series can be described thus: Odor evaluation panel rating of odorants by Rate-All-That-Apply (RATA) method with 55-word odor lexicon, plus intensity and pleasantness. Set-up: species or system human. The following applies: for Floral: mean panelist score for odor label floral (RATA); for Fruity: mean panelist score for odor label fruity (RATA); for Spicy: mean panelist score for odor label spicy (RATA); for Sweet: mean panelist score for odor label sweet (RATA); for Pleasantness: mean panelist score for odor pleasantness.

A short description of series [1]: Evaluation by trained and/or certified flavor or fragrance chemists or master perfumers; categorization by commercial prospect. To be noted: for Rating: category of commercial prospect, (A) highest > (B) > (C) > (D) lowest, (E) requires further study; for Rating (category of commercial prospect): evaluation by trained flavor or fragrance chemists or master perfumers.

In the case of `CN(C)C(OC(C)(C)C)N(C)C` [Compound 136, N,N,N′,N′-tetramethyl-1-[(2-methylpropan-2-yl)oxy]methanediamine], in the series with odor evaluation panel, the Floral is 0.125, the Fruity is 0, the Spicy came to 0 and the Sweet stood at 0.094. Moreover, the Pleasantness in the series with odor evaluation panel is 2.919. Moreover, the Rating result in series [1] is recorded as “(D)”.
Take `CC(C)(C)NC=O` [Compound 661, N-tert-butyl formamide]: in the series on odor evaluation panel, the Floral worked out at 0.25, the Fruity is 0.656, the Spicy was determined as 0.156 and the Sweet is given as 1. Besides, the Pleasantness with odor evaluation panel is listed as 5.862. In addition, the “Rating (category of commercial prospect)” value in series [1] was “(D)”.
Consider `NC1CCCCCCC1` [Compound 79, cyclooctanamine], for which, in the series on odor evaluation panel, the Floral is 0, the Fruity was found to be 0.061, the Spicy came to 0.303 and the Sweet is on record as 0.273. Also, the Pleasantness in the series with odor evaluation panel is given as 2.948. Moreover, the Rating entry in series [1] is “(D)”.
For the compound `O=C1OC(=O)C2CC=CCC12` (stereo not shown) [Compound 694, 3a,4,7,7a-tetrahydro-2-benzofuran-1,3-dione], in the series on odor evaluation panel, the Floral amounted to 0.083, the Fruity is 0, the Spicy worked out at 0.028 and the Sweet is given as 0. In addition, the “Rating (category of commercial prospect)” value in series [1] is on record as “(D)”.
`Cc1cnc[nH]1` [Compound 455, 5-methyl-1H-imidazole]: in the series on odor evaluation panel, the Floral is 0.094, the Fruity was 0, the Spicy is 0.062 and the Sweet came out at 0.719. Further, the Pleasantness in the series on odor evaluation panel is listed as 6.778. Also, the Rating result in series [1] was “(A)”.
As for `CC(=O)Nc1ccc(N)cc1` [Compound 962, N-(4-aminophenyl)acetamide], in the series on odor evaluation panel, the Floral was 0.067, the Fruity came out at 0.2, the Spicy is on record as 0.2 and the Sweet was 0.567. For the same compound, the Pleasantness in the series with odor evaluation panel is on record as 5.24. Further, in series [1], the “Rating (category of commercial prospect)” value is “(D)”.
In the case of `CSc1ccc(O)cc1C` [Compound 952, 3-methyl-4-methylsulfanylphenol], in the series on odor evaluation panel, the Floral amounted to 0.257, the Fruity is 0, the Spicy came out at 0.029 and the Sweet turned out to be 0.229. In the series on odor evaluation panel, the Pleasantness is on record as 3.789. In addition, the “Rating (category of commercial prospect)” value in series [1] is reported as “(D)”.
`CCOC(C)=C(C#N)C#N` [Compound 428, 2-(1-ethoxyethylidene)propanedinitrile]: in the series on odor evaluation panel, the Floral came out at 0, the Fruity is reported as 0.111, the Spicy is reported as 0.167 and the Sweet is 0.528. Besides, the Rating entry in series [1] was “(D)”.
With `O=Cc1csc2ccccc12` [Compound 470, 1-benzothiophene-3-carbaldehyde], in the series with odor evaluation panel, the Floral amounted to 0.361, the Fruity amounted to 0.361, the Spicy is recorded as 0.167 and the Sweet turned out to be 0.806. In addition, the Rating result in series [1] is reported as “(D)”.
Consider `Cc1n[nH]c(C)n1` [Compound 763, 3,5-dimethyl-1H-1,2,4-triazole], for which, in the series with odor evaluation panel, the Floral came out at 0.533, the Fruity was found to be 0.5, the Spicy is on record as 0.367 and the Sweet is reported as 1.367. In the series with odor evaluation panel, the Pleasantness is recorded as 5.807. Also, in series [1], the “Rating (category of commercial prospect)” value is listed as “(D)”.
For the compound `C1CCC(N2CCNCC2)CC1` [Compound 731, 1-cyclohexylpiperazine], in the series with odor evaluation panel, the Floral stood at 0.094, the Fruity is on record as 0, the Spicy is reported as 0.094 and the Sweet was 0.156. The Pleasantness with odor evaluation panel came out at 2.616. The “Rating (category of commercial prospect)” value in series [1] was “(D)”.
Regarding `c1ccnnc1` [Compound 562, pyridazine], in the series on odor evaluation panel, the Floral is recorded as 0.281, the Fruity stood at 0.438, the Spicy came to 0.125 and the Sweet is recorded as 0.531. The Pleasantness in the series on odor evaluation panel stood at 5.175. Moreover, the Rating entry in series [1] is listed as “(D)”.
Turning to `CCNC(=O)NCC` [Compound 700, 1,3-diethylurea], in the series on odor evaluation panel, the Floral was 0.257, the Fruity stood at 0.086, the Spicy is 0.571 and the Sweet came to 0.143. Also, the Pleasantness with odor evaluation panel came out at 4.869. The “Rating (category of commercial prospect)” value in series [1] was “(D)”.
On to `Oc1cc2ccccc2[nH]1` [Compound 743, 1H-indol-2-ol], for which, in the series with odor evaluation panel, the Floral is 0.438, the Fruity was 0.344, the Spicy was found to be 0.094 and the Pleasantness was 4.609. In series [1], the “Rating (category of commercial prospect)” value is given as “(D)”.
Turning to `CCOC(=O)CN(C)C` [Compound 631, ethyl 2-(dimethylamino)acetate], in the series with odor evaluation panel, the Floral was 0.156, the Fruity amounted to 0, the Spicy was 0.125 and the Sweet is listed as 0.344. The Pleasantness with odor evaluation panel came to 2.303. Further, in series [1], the “Rating (category of commercial prospect)” value is recorded as “(D)”.
For the compound `O=C1CC(c2ccccc2)C(=O)O1` (stereo not shown) [Compound 474, 3-phenyloxolane-2,5-dione], in the series on odor evaluation panel, the Floral is 0.056, the Fruity is 0, the Spicy was found to be 0.083 and the Sweet is on record as 0.167. Besides, the Rating result in series [1] is given as “(D)”.
In the case of `CC1=NN(C)C(=O)C1` [Compound 601, 2,5-dimethyl-4H-pyrazol-3-one], in the series with odor evaluation panel, the Floral stood at 0, the Fruity was 0, the Spicy worked out at 0.121 and the Sweet worked out at 0.273. The Pleasantness with odor evaluation panel turned out to be 5.924. The “Rating (category of commercial prospect)” value in series [1] is reported as “(D)”.
For the compound `c1ccc(C2=NCCO2)cc1` [Compound 941, 2-phenyl-4,5-dihydro-1,3-oxazole], in the series with odor evaluation panel, the Floral is recorded as 0.314, the Fruity is 0.571, the Spicy came out at 0.114 and the Sweet is 1.086. Also, the Pleasantness in the series with odor evaluation panel is 5.94. For the same compound, the “Rating (category of commercial prospect)” value in series [1] was “(D)”.
For the compound `C1CCC2=NCCCN2CC1` [Compound 22, 2,3,4,6,7,8,9,10-octahydropyrimido[1,2-a]azepine], in the series with odor evaluation panel, the Floral was 0.206, the Fruity worked out at 0, the Spicy is 0.088 and the Sweet amounted to 0. Moreover, the Pleasantness in the series with odor evaluation panel was found to be 4.456. Also, in series [1], the Rating entry is reported as “(D)”.
Consider `CC1(C)CCCC(C)(C)N1[O]` [Compound 854, 2,2,6,6-tetramethyl-1-piperidinyloxy radical], for which, in the series on odor evaluation panel, the Floral is 0.056, the Fruity is 0, the Spicy worked out at 0 and the Sweet is recorded as 0.306. In addition, the “Rating (category of commercial prospect)” value in series [1] is “(C)”.
In the case of `CC1CN(C)CCC1=O` (stereo not shown) [Compound 171, 1,3-dimethylpiperidin-4-one], in the series with odor evaluation panel, the Floral was 0, the Fruity is recorded as 0, the Spicy was 0 and the Sweet came to 0.143. The Pleasantness in the series on odor evaluation panel turned out to be 2.514. Besides, in series [1], the Rating result is recorded as “(D)”.
`CN(C1CCCCC1)C1CCCCC1` [Compound 404, N-cyclohexyl-N-methylcyclohexanamine]: in the series with odor evaluation panel, the Floral is given as 0.094, the Fruity turned out to be 0, the Spicy came to 0.156 and the Sweet stood at 0.062. In addition, the Pleasantness in the series with odor evaluation panel came to 2.956. Further, the Rating result in series [1] is recorded as “(D)”.
Take `CCCCc1cc2ccccc2o1` [Compound 758, 2-butyl-1-benzofuran]: in the series on odor evaluation panel, the Floral was 0.844, the Fruity is recorded as 0.781, the Spicy came to 0.094 and the Sweet was determined as 1.156. The Pleasantness in the series on odor evaluation panel is 5.875. In addition, in series [1], the “Rating (category of commercial prospect)” value is listed as “(A)”.
Turning to `C=CCOc1ccccc1C=O` [Compound 98, 2-prop-2-enoxybenzaldehyde], in the series on odor evaluation panel, the Floral amounted to 0.094, the Fruity is 0.125, the Spicy is 0.5 and the Sweet was found to be 0.594. Moreover, the Pleasantness in the series with odor evaluation panel came out at 3.897. For the same compound, in series [1], the Rating entry was “(C)”.
With `CC1=Nc2ccccc2C1(C)C` [Compound 400, 2,3,3-trimethylindole], in the series with odor evaluation panel, the Floral is recorded as 0.417, the Fruity is 0.139, the Spicy is 0.083 and the Sweet is on record as 0.528. Also, the Rating result in series [1] is “(D)”.
Take `COC(OC)c1ccncn1` [Compound 582, 4-(dimethoxymethyl)pyrimidine]: in the series with odor evaluation panel, the Floral came to 0.094, the Fruity was 0, the Spicy is 0.688 and the Sweet is listed as 0.156. For the same compound, in the series with odor evaluation panel, the Pleasantness was determined as 4.281. Further, the “Rating (category of commercial prospect)” value in series [1] is reported as “(A)”.
Consider `CSc1ccc(N)cc1` [Compound 499, 4-methylsulfanylaniline], for which, in the series with odor evaluation panel, the Floral stood at 0, the Fruity is 0, the Spicy was 0.529 and the Sweet was found to be 0. Further, in the series with odor evaluation panel, the Pleasantness came to 3.509. Moreover, the Rating result in series [1] is given as “(D)”.
With `COc1ccc(C(=O)C2CC2)cc1` [Compound 570, cyclopropyl-(4-methoxyphenyl)methanone], in the series on odor evaluation panel, the Floral worked out at 0.219, the Fruity turned out to be 0.125, the Spicy is on record as 0.062 and the Sweet was found to be 1.062. Further, in the series on odor evaluation panel, the Pleasantness is 5.612. The “Rating (category of commercial prospect)” value in series [1] is “(C)”.
For `COc1ccccc1C(C)C` [Compound 539, 1-methoxy-2-propan-2-ylbenzene], in the series with odor evaluation panel, the Floral was determined as 0.111, the Fruity is 0, the Spicy came out at 0.306 and the Sweet came to 0.111. The Rating result in series [1] was “(A)”.
